In patent publication US9914914B2, “Polymerase capable of producing non-DNA nucleotide polymers” (Medical Research Council, priority 2012, dated 2018):

B1: D4K: Tgo polymerase with V93Q, D141A, E143A, L403P, A485L, P657T, E658Q, K659H, Y663H, E664K, D669A, K671N, T676I; SEQ ID NO:5 (protein)
chain: MILDTDYITEDGKPVIRIFKKENGEFKIDYDRNFEPYIYALLKDDSAIEDVKKITAERHGTTVRVVRAEKVKKKFLGRPIEVWKLYFTHPQDQPAIRDKIKEHPAVVDIYEYDIPFAKRYLIDKGLIPMEGDEELKMLAFAIATLYHEGEEFAEGPILMISYADEEGARVITWKNIDLPYVDVVSTEKEMIKRFLKVVKEKDPDVLITYNGDNFDFAYLKKRSEKLGVKFILGREGSEPKIQRMGDRFAVEVKGRIHFDLYPVIRRTINLPTYTLEAVYEAIFGQPKEKVYAEEIAQAWETGEGLERVARYSMEDAKVTYELGKEFFPMEAQLSRLVGQSLWDVSRSSTGNLVEWFLLRKAYERNELAPNKPDERELARRRESYAGGYVKEPERGLWENIVYPDFRSLYPSIIITHNVSPDTLNREGCEEYDVAPQVGHKFCKDFPGFIPSLLGDLLEERQKVKKKMKATIDPIEKKLLDYRQRLIKILANSFYGYYGYAKARWYCKECAESVTAWGRQYIETTIREIEEKFGFKVLYADTDGFFATIPGADAETVKKKAKEFLDYINAKLPGLLELEYEGFYKRGFFVTKKKYAVIDEEDKITTRGLEIVRRDWSEIAKETQARVLEAILKHGDVEEAVRIVKEVTEKLSKYEVPTQHLVIHKQITRALNDYKAIGPHVAVAKRLAARGIKIRPGTVISYIVLKGSGRIGDRAIPFDEFDPAKHKYDAEYYIENQVLPAVERILRAFGYRKEDLRYQKTRQVGLGAWLKPKT
modifications: Polymerase D4YK derived from T. gorgonarius

Test: Aggregate fidelity of XNA synthesis and reverse transcription
Type: biochemical
Settings: for Misincorporation error: DNA→XNA→DNA; for Misincorporation error / Total Error: synthesis/RT: HNA Pol6G12/RT521, CeNA PolC7/RT521K, ANA and FANA PolD4K/RT521K, TNA RT521/RT521, LNA PolC7/RT521K; for aggregate fidelity (probability of errors per position): full DNA→XNA→DNA replication cycle; for Total Error: includes Taq amplification error

| Molecule | Misincorporation error | aggregate fidelity (probability of errors per position) | Total Error | apparent fidelity with ANA (ANA synthesis, reverse transcription, PCR, sequencing) | apparent fidelity with FANA (FANA synthesis, reverse transcription, PCR, sequencing) |
| --- | --- | --- | --- | --- | --- |
| 2′-O,4′-C-methylene-β-D-ribonucleic acids [LNA] | 52.8 ×10^−3 | 5.3×10^−2 | 62.0 ×10^−3 |  |  |
| a-L-threofuranosyl nucleic acids [TNA] | 48.5 ×10^−3 |  | 68.5 ×10^−3 |  |  |
| cyclohexenyl nucleic acids [CeNA] | 4.31 ×10^−3 | 4.3×10^−3 | 9.64 ×10^−3 |  |  |
| B1 |  |  |  | 7.66×10^−3 | 9.45×10^−3 |
